Test results: US20220340657A1
No constants are given. Whether binding was seen depends on the method and setting. Some entries that bind do so weakly or less than the wild type.

Sequences of proteins named here, by UniProt entry; tags and fusion partners are left off. A change or cut given only in a name is not applied to a line headed by its entry. A line that says so, or that is headed by a name, gives the form on record, which may keep a tag or linker. Residues count along the entry.
bio-LAG3-mFc (P18627, residues 23-450): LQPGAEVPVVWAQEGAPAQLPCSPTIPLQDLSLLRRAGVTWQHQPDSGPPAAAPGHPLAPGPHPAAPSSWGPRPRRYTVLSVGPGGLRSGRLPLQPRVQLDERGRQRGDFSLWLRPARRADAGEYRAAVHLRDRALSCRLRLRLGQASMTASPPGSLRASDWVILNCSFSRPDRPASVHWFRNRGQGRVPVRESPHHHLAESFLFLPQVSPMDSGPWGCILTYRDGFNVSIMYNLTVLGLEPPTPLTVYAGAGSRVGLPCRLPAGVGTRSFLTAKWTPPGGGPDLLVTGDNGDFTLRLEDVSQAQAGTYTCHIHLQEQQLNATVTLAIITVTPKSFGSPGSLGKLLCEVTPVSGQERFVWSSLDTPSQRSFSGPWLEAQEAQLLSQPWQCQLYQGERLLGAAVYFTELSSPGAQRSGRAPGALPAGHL
human LAG-3-his (P18627, form named): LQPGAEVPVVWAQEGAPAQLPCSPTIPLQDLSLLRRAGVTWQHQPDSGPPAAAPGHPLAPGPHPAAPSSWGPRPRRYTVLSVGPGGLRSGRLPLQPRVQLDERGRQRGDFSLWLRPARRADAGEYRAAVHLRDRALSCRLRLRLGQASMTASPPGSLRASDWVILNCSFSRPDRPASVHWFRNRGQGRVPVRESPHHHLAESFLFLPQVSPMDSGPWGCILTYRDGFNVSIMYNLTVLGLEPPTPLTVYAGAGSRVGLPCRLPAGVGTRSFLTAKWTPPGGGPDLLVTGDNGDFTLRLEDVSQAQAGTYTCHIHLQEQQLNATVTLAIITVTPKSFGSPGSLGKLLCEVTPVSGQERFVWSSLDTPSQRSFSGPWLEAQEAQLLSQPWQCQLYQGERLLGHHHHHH

How the values were obtained:
bio-LAG3-mFc (human) = bio-LAG3-mFc (human) (UniProt P18627); test: blocking ELISA on fixed Daudi cells: antibody titrated against bio-LAG3-mFc binding to Daudi cells (MHC II), streptavidin-HRP, OD450 (Example 4) [panel b]
human LAG-3-his (human) [1] = target: human LAG-3-his (human) (UniProt P18627); test: ELISA
human LAG-3-his (human) [2] = target: human LAG-3-his (human) (UniProt P18627); test: ELISA on coated human LAG-3-his, anti-human HRP, OD450 (Example 3) [panel a]

Measured: binding

B1: chimeric antibody mab23c (antibody, human IgG4 S228P, kappa, V domains shown)
VH: QVQLQQSGAELVRPGASVTLSCKASGYTFTDYEMHWVKQTPVHGLEWIGGIDPETEGIAYNQKFRGKAILTADKSSITAYMELRSLTSEDSAVYYCTNSNYYGGREAWFAYWGQGTLVTVSG
VL: DIQMIQSPSSLSASLGERVSLTCRASQDIGSSLNWLQQEPDGTIKRLIYATSSLDSGVPKRFSGSRSGSDYSLTISSLESEDFVDYYCLQYVTSPLTFGAGTKLELKR
binds: bio-LAG3-mFc (human) | human LAG-3-his (human) [1] | human LAG-3-his (human) [2]
